Laboratory results from US20190085081A1.
These are yes or no findings as the source states them, for the method shown. In cells and extracts the contact can be indirect. Some entries that bind do so weakly or less than the wild type.

Amino acid sequences for entries named in this document (tags omitted). A change or cut given only in a name is not applied to a line headed by its entry.
UniProt Q86T13: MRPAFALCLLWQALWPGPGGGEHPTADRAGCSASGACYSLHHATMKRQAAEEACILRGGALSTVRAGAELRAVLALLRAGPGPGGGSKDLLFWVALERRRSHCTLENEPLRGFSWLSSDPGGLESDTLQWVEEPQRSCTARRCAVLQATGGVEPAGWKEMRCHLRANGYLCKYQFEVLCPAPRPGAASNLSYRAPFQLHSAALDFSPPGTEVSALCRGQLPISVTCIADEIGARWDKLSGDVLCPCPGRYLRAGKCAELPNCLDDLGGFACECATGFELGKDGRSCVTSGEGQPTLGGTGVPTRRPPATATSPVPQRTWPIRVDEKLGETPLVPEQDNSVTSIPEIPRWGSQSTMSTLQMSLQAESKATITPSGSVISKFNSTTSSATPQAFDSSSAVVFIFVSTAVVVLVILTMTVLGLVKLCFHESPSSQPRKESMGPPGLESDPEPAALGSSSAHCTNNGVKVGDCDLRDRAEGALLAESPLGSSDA

Columns and labels:
[1] = biological target: T1, MMRN2 (endogenous, HUVEC lysate) (human) (UniProt Q9H8L6); assay: co-immunoprecipitation from HUVEC lysate
T1 sequence: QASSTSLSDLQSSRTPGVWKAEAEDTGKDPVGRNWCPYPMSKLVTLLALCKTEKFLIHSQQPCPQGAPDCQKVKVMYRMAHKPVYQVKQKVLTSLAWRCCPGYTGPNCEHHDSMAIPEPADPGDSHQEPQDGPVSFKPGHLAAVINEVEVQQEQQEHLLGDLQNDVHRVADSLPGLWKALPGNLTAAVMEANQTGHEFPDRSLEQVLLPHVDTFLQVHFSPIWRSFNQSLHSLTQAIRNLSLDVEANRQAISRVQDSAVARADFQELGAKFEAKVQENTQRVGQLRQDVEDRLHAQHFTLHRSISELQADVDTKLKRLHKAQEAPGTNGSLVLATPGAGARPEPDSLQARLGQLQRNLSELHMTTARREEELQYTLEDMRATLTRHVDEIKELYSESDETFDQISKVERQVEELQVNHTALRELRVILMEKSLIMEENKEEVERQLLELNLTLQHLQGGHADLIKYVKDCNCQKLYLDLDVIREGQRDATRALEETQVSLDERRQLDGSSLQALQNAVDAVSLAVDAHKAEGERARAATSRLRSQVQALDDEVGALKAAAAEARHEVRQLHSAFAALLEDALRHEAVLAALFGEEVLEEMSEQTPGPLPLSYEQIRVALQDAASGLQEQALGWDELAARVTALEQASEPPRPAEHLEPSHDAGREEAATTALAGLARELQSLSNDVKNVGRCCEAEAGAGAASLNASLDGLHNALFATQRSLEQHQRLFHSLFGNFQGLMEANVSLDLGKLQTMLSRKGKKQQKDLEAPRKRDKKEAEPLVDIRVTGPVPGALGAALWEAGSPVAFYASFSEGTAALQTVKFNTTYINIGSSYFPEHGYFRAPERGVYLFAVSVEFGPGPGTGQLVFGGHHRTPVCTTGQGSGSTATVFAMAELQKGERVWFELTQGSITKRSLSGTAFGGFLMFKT

[2] = biological target: T1, MMRN2 (endogenous, HUVEC lysate) (human); assay: co-immunoprecipitation from HUVEC lysate, Western blot (FIG. 8B)
[3] = biological target: T1, MMRN2 (endogenous, HUVEC lysate) (human); assay: co-immunoprecipitation from HUVEC whole cell lysate, Western blot

Measured: binding

human CLEC14A, full length (from UniProt Q86T13 22-490) (receptor)
binds: all assays above
